Data on six molecules can be found in PMC3125213.

The chains are these.
T1: TAR-RNA binding protein 2 (human) (UniProt Q15633)
T1 sequence: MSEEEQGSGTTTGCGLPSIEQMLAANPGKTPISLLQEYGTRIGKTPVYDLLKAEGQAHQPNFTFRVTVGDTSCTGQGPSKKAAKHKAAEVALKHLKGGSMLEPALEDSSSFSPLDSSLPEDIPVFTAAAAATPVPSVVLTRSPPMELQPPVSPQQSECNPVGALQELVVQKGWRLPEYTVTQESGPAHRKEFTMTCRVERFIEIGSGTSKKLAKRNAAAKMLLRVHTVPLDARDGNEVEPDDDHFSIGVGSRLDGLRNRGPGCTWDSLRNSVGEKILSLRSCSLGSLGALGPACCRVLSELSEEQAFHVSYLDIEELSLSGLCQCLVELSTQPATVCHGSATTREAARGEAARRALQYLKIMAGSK

B1: NOL1 (protein, UniProt P46087 1-812)
chain: MGRKLDPTKEKRGPGRKARKQKGAETELVRFLPAVSDENSKRLSSRARKRAAKRRLGSVEAPKTNKSPEAKPLPGKLPKGISAGAVQTAGKKGPQSLFNAPRGKKRPAPGSDEEEEEEDSEEDGMVNHGDLWGSEDDADTVDDYGADSNSEDEEEGEALLPIERAARKQKAREAAAGIQWSEEETEDEEEEKEVTPESGPPKVEEADGGLQINVDEEPFVLPPAGEMEQDAQAPDLQRVHKRIQDIVGILRDFGAQREEGRSRSEYLNRLKKDLAIYYSYGDFLLGKLMDLFPLSELVEFLEANEVPRPVTLRTNTLKTRRRDLAQALINRGVNLDPLGKWSKTGLVVYDSSVPIGATPEYLAGHYMLQGASSMLPVMALAPQEHERILDMCCAPGGKTSYMAQLMKNTGVILANDANAERLKSVVGNLHRLGVTNTIISHYDGRQFPKVVGGFDRVLLDAPCSGTGVISKDPAVKTNKDEKDILRCAHLQKELLLSAIDSVNATSKTGGYLVYCTCSITVEENEWVVDYALKKRNVRLVPTGLDFGQEGFTRFRERRFHPSLRSTRRFYPHTHNMDGFFIAKFKKFSNSIPQSQTGNSETATPTNVDLPQVIPKSENSSQPAKKAKGAAKTKQQLQKQQHPKKASFQKLNGISKGADSELSTVPSVTKTQASSSFQDSSQPAGKAEGIREPKVTGKLKQRSPKLQSSKKVAFLRQNAPPKGTDTQTPAVLSPSKTQATLKPKDHHQPLGRAKGVEKQQLPEQPFEKAAFQKQNDTPKGPQPPTVSPIRSSRPPPAKRKKSQSRGNSQLLLS
B2: IGHMBP2 (protein, UniProt P38935 1-993)
chain: MASAAVESFVTKQLDLLELERDAEVEERRSWQENISLKELQSRGVCLLKLQVSSQRTGLYGRLLVTFEPRRYGSAAALPSNSFTSGDIVGLYDAANEGSQLATGILTRVTQKSVTVAFDESHDFQLSLDRENSYRLLKLANDVTYRRLKKALIALKKYHSGPASSLIEVLFGRSAPSPASEIHPLTFFNTCLDTSQKEAVLFALSQKELAIIHGPPGTGKTTTVVEIILQAVKQGLKVLCCAPSNIAVDNLVERLALCKQRILRLGHPARLLESIQQHSLDAVLARSDSAQIVADIRKDIDQVFVKNKKTQDKREKSNFRNEIKLLRKELKEREEAAMLESLTSANVVLATNTGASADGPLKLLPESYFDVVVIDECAQALEASCWIPLLKARKCILAGDHKQLPPTTVSHKAALAGLSLSLMERLAEEYGARVVRTLTVQYRMHQAIMRWASDTMYLGQLTAHSSVARHLLRDLPGVAATEETGVPLLLVDTAGCGLFELEEEDEQSKGNPGEVRLVSLHIQALVDAGVPARDIAVVSPYNLQVDLLRQSLVHRHPELEIKSVDGFQGREKEAVILSFVRSNRKGEVGFLAEDRRINVAVTRARRHVAVICDSRTVNNHAFLKTLVEYFTQHGEVRTAFEYLDDIVPENYSHENSQGSSHAATKPQGPATSTRTGSQRQEGGQEAAAPARQGRKKPAGKSLASEAPSQPSLNGGSPEGVESQDGVDHFRAMIVEFMASKKMQLEFPPSLNSHDRLRVHQIAEEHGLRHDSSGEGKRRFITVSKRAPRPRAALGPPAGTGGPAPLQPVPPTPAQTEQPPREQRGPDQPDLRTLHLERLQRVRSAQGQPASKEQQASGQQKLPEKKKKKAKGHPATDLPTEEDFEALVSAAVKADNTCGFAKCTAGVTTLGQFCQLCSRRYCLSHHLPEIHGCGERARAHARQRISREGVLYAGSGTKNGSLDPAKRAQLQRRLDKKLSELSNQRTSRRKERGT
B3: GTF3C4 (protein, UniProt Q9UKN8 1-822)
chain: MNTADQARVGPADDGPAPSGEEEGEGGGEAGGKEPAADAAPGPSAAFRLMVTRREPAVKLQYAVSGLEPLAWSEDHRVSVSTARSIAVLELICDVHNPGQDLVIHRTSVPAPLNSCLLKVGSKTEVAECKEKFAASKDPTVSQTFMLDRVFNPEGKALPPMRGFKYTSWSPMGCDANGRCLLAALTMDNRLTIQANLNRLQWVQLVDLTEIYGERLYETSYRLSKNEAPEGNLGDFAEFQRRHSMQTPVRMEWSGICTTQQVKHNNECRDVGSVLLAVLFENGNIAVWQFQLPFVGKESISSCNTIESGITSPSVLFWWEYEHNNRKMSGLIVGSAFGPIKILPVNLKAVKGYFTLRQPVILWKEMDQLPVHSIKCVPLYHPYQKCSCSLVVAARGSYVFWCLLLISKAGLNVHNSHVTGLHSLPIVSMTADKQNGTVYTCSSDGKVRQLIPIFTDVALKFEHQLIKLSDVFGSVRTHGIAVSPCGAYLAIITTEGMINGLHPVNKNYQVQFVTLKTFEEAAAQLLESSVQNLFKQVDLIDLVRWKILKDKHIPQFLQEALEKKIESSGVTYFWRFKLFLLRILYQSMQKTPSEALWKPTHEDSKILLVDSPGMGNADDEQQEEGTSSKQVVKQGLQERSKEGDVEEPTDDSLPTTGDAGGREPMEEKLLEIQGKIEAVEMHLTREHMKRVLGEVYLHTWITENTSIPTRGLCNFLMSDEEYDDRTARVLIGHISKKMNKQTFPEHCSLCKEILPFTDRKQAVCSNGHIWLRCFLTYQSCQSLIYRRCLLHDSIARHPAPEDPDWIKRLLQSPCPFCDSPVF
B4: GNL3 (protein, UniProt Q9BVP2 1-549)
chain: MKRPKLKKASKRMTCHKRYKIQKKVREHHRKLRKEAKKRGHKKPRKDPGVPNSAPFKEALLREAELRKQRLEELKQQQKLDRQKELEKKRKLETNPDIKPSNVEPMEKEFGLCKTENKAKSGKQNSKKLYCQELKKVIEASDVVLEVLDARDPLGCRCPQVEEAIVQSGQKKLVLILNKSDLVPKENLESWLNYLKKELPTVVFRASTKPKDKGKITKRVKAKKNAAPFRSEVCFGKEGLWKLLGGFQETCSKAIRVGVIGFPNVGKSSIINSLKQEQMCNVGVSMGLTRSMQVVPLDKQITIIDSPSFIVSPLNSSSALALRSPASIEVVKPMEAASAILSQADARQVVLKYTVPGYRNSLEFFTVLAQRRGMHQKGGIPNVEGAAKLLWSEWTGASLAYYCHPPTSWTPPPYFNESIVVDMKSGFNLEELEKNNAQSIRAIKGPHLANSILFQSSGLTNGIIEEKDIHEELPKRKERKQEEREDDKDSDQETVDEEVDENSSGMFAAEETGEALSEETTAGEQSTRSFILDKIIEEDDAYDFSTDYV
B5: DEK (protein, UniProt P35659 1-375)
chain: MSASAPAAEGEGTPTQPASEKEPEMPGPREESEEEEDEDDEEEEEEEKEKSLIVEGKREKKKVERLTMQVSSLQREPFTIAQGKGQKLCEIERIHFFLSKKKTDELRNLHKLLYNRPGTVSSLKKNVGQFSGFPFEKGSVQYKKKEEMLKKFRNAMLKSICEVLDLERSGVNSELVKRILNFLMHPKPSGKPLPKSKKTCSKGSKKERNSSGMARKAKRTKCPEILSDESSSDEDEKKNKEESSDDEDKESEEEPPKKTAKREKPKQKATSKSKKSVKSANVKKADSSTTKKNQNSSKKESESEDSSDDEPLIKKLKKPPTDEELKETIKKLLASANLEEVTMKQICKKVYENYPTYDLTERKDFIKTTVKELIS
B6: ASPH (protein, UniProt Q12797 1-758)
chain: MAQRKNAKSSGNSSSSGSGSGSTSAGSSSPGARRETKHGGHKNGRKGGLSGTSFFTWFMVIALLGVWTSVAVVWFDLVDYEEVLGKLGIYDADGDGDFDVDDAKVLLGLKERSTSEPAVPPEEAEPHTEPEEQVPVEAEPQNIEDEAKEQIQSLLHEMVHAEHVEGEDLQQEDGPTGEPQQEDDEFLMATDVDDRFETLEPEVSHEETEHSYHVEETVSQDCNQDMEEMMSEQENPDSSEPVVEDERLHHDTDDVTYQVYEEQAVYEPLENEGIEITEVTAPPEDNPVEDSQVIVEEVSIFPVEEQQEVPPETNRKTDDPEQKAKVKKKKPKLLNKFDKTIKAELDAAEKLRKRGKIEEAVNAFKELVRKYPQSPRARYGKAQCEDDLAEKRRSNEVLRGAIETYQEVASLPDVPADLLKLSLKRRSDRQQFLGHMRGSLLTLQRLVQLFPNDTSLKNDLGVGYLLIGDNDNAKKVYEEVLSVTPNDGFAKVHYGFILKAQNKIAESIPYLKEGIESGDPGTDDGRFYFHLGDAMQRVGNKEAYKWYELGHKRGHFASVWQRSLYNVNGLKAQPWWTPKETGYTELVKSLERNWKLIRDEGLAVMDKAKGLFLPEDENLREKGDWSQFTLWQQGRRNENACKGAPKTCTLLEKFPETTGCRRGQIKYSIMHPGTHVWPHTGPTNCRLRMHLGLVIPKEGCKIRCANETKTWEEGKVLIFDDSFEHEVWQDASSFRLIFIVDVWHPELTPQQRRSLPAI

Results are given in words; binding and its absence hold for the method and conditions named. In cells and extracts the contact can be indirect. Here binding means that the protein was enriched with, or labelled near, the bait; the list need not be complete. Tags and fused reporters may be left off the sequences shown.

This test has as its target T1, TAR-RNA binding protein 2 (human). Briefly: affinity purification with mass spectrometry; lysates of HeLa cells overexpressing Flag-TRBP immunoprecipitated with monoclonal anti-Flag agarose, eluted with 3X Flag polypeptides, SDS gel, fifteen Coomassie bands excised and analysed by LC-MS/MS; identifications of the mock-transfected sample subtracted.
Turning to B1, the binding result is recorded as “binds”.
The same measure for B2: “binds”.
The same measure for B3: “binds”; for B4: “binds”; for B5: “binds”.
With B6 the entry was “binds”.
